Assay results reported in the supplement of paper PMC10849652.
The list shows a part of the results.

Chains of the proteins cited; added tags and fusions are not shown. Lines headed by an entry give the natural chain unless they say otherwise; changes in a name come on top.
UniProt Q9Y343: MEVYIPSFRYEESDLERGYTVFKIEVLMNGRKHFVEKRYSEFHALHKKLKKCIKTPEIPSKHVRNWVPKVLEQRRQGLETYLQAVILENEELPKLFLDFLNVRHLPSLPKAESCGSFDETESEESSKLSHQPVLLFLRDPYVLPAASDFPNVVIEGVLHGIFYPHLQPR
UniProt O60271: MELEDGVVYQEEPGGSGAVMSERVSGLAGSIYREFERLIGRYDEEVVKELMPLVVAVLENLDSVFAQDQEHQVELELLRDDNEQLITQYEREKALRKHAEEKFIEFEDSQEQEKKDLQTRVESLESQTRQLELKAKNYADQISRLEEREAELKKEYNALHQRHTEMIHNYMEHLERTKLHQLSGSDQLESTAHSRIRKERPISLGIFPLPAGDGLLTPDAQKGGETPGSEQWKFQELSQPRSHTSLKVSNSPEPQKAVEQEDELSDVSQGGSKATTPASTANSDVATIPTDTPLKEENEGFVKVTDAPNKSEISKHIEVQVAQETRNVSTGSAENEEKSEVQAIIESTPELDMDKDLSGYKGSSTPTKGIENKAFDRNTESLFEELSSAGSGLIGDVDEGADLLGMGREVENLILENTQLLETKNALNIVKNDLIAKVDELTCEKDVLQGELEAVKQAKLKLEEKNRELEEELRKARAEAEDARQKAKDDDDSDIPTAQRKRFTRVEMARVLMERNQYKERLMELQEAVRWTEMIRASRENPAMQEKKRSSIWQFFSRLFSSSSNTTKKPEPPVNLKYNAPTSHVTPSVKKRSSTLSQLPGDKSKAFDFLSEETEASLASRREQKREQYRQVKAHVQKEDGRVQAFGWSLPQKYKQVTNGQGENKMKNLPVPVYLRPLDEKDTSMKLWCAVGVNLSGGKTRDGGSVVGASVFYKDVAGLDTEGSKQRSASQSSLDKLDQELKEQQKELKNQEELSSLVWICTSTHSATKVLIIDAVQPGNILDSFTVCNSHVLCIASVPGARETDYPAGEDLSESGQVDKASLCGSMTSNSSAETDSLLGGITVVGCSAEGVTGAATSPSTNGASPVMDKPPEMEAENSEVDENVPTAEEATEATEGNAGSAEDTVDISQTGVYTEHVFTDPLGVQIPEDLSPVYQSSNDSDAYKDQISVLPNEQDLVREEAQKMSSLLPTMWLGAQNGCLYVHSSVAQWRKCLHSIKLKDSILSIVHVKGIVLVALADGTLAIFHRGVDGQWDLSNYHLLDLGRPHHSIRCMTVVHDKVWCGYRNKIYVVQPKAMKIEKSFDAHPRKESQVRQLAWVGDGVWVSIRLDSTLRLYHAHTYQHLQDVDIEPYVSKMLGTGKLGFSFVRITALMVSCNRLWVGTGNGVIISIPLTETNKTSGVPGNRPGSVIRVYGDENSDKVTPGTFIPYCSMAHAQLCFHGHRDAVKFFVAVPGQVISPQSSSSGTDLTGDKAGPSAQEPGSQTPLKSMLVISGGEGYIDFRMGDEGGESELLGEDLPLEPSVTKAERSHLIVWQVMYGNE
UniProt Q9Y5W8: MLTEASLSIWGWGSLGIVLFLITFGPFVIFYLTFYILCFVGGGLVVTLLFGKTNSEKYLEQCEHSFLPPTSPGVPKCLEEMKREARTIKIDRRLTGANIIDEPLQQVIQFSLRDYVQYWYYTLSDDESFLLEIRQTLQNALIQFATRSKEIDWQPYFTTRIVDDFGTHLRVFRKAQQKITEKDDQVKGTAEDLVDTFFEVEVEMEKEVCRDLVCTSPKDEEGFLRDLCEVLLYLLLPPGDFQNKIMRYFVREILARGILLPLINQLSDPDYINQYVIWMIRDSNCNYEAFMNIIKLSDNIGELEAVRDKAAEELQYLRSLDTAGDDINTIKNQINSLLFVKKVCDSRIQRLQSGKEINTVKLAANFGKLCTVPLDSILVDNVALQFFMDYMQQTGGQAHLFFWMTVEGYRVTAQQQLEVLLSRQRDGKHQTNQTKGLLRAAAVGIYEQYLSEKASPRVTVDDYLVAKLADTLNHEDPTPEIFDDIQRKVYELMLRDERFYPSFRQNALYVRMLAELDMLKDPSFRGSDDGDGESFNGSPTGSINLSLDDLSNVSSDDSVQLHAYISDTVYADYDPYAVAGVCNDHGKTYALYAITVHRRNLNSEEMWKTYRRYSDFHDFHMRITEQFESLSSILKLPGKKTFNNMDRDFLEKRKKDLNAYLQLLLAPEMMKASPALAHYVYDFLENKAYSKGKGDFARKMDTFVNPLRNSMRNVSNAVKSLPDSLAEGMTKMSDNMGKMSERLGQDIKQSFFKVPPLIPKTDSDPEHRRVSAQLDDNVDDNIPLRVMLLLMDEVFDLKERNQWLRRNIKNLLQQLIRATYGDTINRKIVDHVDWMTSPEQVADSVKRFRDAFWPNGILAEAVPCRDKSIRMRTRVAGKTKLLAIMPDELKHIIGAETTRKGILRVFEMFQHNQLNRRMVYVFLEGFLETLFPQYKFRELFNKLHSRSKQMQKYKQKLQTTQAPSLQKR
UniProt P18583: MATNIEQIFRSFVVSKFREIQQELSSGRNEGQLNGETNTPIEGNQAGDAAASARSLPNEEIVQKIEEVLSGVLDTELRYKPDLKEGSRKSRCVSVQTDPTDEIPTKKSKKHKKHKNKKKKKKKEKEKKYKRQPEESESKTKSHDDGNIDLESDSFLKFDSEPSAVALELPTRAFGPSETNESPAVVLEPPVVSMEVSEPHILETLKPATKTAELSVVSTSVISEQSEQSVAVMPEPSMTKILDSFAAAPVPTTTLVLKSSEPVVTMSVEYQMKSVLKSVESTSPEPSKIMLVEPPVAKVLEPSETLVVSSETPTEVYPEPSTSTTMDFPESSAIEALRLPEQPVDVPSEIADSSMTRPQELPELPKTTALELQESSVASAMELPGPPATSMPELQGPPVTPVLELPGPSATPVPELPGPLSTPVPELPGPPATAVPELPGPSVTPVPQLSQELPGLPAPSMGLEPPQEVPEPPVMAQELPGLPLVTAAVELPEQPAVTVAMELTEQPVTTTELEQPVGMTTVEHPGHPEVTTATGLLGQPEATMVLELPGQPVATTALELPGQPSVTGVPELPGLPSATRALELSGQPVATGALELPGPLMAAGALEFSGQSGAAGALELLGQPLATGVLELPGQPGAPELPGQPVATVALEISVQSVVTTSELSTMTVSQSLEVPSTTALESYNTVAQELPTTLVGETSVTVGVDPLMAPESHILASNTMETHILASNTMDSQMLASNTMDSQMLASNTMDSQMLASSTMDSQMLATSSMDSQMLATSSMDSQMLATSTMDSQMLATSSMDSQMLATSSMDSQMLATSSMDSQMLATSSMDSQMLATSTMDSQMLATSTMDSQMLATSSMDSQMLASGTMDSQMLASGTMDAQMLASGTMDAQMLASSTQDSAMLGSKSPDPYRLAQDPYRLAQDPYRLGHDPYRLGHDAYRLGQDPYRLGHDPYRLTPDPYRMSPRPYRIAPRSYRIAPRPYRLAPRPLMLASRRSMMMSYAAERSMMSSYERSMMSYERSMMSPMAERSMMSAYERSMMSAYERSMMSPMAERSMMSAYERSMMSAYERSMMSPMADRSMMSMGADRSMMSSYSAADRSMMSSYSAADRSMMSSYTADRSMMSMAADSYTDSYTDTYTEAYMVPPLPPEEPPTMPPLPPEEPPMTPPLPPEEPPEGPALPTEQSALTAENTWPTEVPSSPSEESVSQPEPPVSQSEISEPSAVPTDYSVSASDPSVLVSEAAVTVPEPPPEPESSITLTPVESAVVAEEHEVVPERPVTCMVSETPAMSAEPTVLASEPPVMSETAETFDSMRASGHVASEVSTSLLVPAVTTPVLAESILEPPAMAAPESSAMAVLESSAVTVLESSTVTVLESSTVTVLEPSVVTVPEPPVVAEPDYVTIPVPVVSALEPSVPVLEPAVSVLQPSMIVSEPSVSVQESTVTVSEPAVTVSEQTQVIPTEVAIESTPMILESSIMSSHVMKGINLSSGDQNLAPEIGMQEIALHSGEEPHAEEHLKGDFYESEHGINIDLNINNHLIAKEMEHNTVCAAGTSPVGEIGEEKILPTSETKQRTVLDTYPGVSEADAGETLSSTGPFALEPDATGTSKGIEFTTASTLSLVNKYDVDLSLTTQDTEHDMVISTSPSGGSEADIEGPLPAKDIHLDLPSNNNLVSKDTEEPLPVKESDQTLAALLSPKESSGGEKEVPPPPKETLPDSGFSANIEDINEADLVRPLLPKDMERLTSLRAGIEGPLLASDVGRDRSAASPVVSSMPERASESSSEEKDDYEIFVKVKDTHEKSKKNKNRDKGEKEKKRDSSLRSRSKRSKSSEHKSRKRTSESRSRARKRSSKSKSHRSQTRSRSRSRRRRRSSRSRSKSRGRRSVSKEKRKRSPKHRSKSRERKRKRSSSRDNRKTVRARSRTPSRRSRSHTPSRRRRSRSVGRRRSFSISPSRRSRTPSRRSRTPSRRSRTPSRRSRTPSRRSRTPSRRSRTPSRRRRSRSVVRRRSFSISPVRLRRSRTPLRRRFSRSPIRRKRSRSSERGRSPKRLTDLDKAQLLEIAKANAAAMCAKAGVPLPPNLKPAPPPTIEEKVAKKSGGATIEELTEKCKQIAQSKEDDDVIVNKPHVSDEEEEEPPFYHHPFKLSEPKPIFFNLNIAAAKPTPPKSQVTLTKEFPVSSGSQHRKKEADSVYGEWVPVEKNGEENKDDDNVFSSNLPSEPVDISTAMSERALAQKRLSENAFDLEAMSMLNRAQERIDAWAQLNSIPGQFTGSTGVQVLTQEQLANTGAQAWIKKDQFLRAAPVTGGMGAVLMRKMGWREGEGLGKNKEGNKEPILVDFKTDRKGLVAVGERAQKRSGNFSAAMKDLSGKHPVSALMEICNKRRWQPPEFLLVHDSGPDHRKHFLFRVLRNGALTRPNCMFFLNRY
UniProt P35716: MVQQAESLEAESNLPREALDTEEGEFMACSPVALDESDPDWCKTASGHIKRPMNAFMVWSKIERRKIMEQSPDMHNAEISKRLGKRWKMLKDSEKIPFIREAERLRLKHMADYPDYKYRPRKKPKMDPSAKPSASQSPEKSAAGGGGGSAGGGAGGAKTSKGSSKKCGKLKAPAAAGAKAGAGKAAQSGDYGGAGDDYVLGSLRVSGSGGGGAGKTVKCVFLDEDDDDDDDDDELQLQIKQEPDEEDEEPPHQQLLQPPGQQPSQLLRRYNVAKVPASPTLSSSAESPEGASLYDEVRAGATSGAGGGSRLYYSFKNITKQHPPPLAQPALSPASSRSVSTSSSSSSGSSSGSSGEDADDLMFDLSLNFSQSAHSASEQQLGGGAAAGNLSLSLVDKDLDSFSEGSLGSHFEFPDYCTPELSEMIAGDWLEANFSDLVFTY
UniProt Q92484: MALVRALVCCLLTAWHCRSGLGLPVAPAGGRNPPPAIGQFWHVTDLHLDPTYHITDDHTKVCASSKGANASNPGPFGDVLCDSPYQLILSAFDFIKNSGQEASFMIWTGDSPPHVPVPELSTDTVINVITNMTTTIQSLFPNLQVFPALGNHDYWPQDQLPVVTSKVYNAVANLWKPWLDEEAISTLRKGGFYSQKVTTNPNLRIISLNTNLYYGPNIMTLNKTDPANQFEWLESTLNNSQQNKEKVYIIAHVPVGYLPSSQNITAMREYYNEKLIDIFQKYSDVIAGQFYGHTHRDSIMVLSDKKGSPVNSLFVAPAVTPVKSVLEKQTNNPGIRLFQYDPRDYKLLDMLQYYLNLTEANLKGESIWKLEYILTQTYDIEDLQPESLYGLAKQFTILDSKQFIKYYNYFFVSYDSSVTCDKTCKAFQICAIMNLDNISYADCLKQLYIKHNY
UniProt Q15506: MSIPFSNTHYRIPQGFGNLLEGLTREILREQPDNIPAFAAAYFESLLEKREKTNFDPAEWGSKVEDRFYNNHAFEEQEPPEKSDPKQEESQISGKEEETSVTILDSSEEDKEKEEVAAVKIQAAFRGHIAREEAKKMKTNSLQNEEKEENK
UniProt P17405: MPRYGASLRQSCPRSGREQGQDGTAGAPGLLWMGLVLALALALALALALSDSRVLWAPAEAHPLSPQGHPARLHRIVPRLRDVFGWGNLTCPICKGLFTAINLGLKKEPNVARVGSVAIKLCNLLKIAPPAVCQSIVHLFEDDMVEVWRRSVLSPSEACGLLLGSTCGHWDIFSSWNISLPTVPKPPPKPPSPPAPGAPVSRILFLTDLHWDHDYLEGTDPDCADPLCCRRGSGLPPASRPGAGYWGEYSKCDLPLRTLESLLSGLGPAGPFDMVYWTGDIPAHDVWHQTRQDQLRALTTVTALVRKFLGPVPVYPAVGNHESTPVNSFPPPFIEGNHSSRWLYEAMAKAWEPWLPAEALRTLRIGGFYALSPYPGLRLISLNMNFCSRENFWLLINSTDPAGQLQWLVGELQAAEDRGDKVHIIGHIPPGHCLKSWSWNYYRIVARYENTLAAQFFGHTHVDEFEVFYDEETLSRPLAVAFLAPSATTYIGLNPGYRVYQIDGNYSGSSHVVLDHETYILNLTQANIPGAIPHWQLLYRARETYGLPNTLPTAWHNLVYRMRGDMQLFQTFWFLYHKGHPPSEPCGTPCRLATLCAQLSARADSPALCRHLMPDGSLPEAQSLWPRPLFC

What was measured:
Experiment in all cases: log2 fold change, soluble protein after heating vs DMSO (PISA); higher = thermal stabilisation; K562 lysate, 10 uM; active = over 0.2 and 3.5 SD of the protein, either way, in both replicates (recomputed)
erlotinib = compound: C#Cc1cccc(Nc2ncnc3cc(OCCOC)c(OCCOC)cc23)c1 [erlotinib]
Method in brief: (§1)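 K562 pellets were dounce-homogenised in PBS pH 7.4 with 1 mM MgCl2, and the crude extract at 1 mg/mL protein was treated with 10 μM compound for 30 min. Aliquots were heated for 3 min across 48°C-58°C, pooled, and brought to 0.5% NP-40 at 4°C; soluble protein was the supernatant after 21,000xg for 90 min. Soluble protein was quantified by TMTpro 16plex LC-MS/MS with channel sums equalised, and reported as log2 fold change in thermal stability against DMSO controls, with values from duplicates.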

[1] = compound: C1=CC(=CC=C1C2=NC3=C(N2)C=C(C=C3)C(=O)N)OC4=CC=C(C=C4)Cl
Method in brief: as §1

[2] = compound: C1=CC2=NC=CN=C2C=C1/C=C/3\C(=O)NC(=O)S3
Method in brief: as §1

[3] = compound: C1=CC=C(C=C1)C2=NC(=C(N2)C3=CC=NC=C3)C4=CC(=C(C=C4)Cl)O
Method in brief: as §1

[4] = compound: C1CCN(C1)C(=O)NC2=CC=CC(=C2)NC3=NC=C(C(=N3)NCCC4=CN=CN4)Br
Method in brief: as §1

[5] = compound: C1CN(CCC1(CC2=CC=C(C=C2)Cl)N)C3=NC=NC4=C3C=CN4
Method in brief: as §1

IRAK-1-4 Inhibitor I = compound: C1COCCN1CCN2C3=CC=CC=C3N=C2NC(=O)C4=CC(=CC=C4)[N+](=O)[O-] [IRAK-1-4 Inhibitor I]
Method in brief: as §1

[6] = compound: C/C(=N\NC(=O)C1=CC(=CC=C1)S(=O)(=O)N2CCOCC2)/C3=C(C=CC(=C3)Cl)O
Method in brief: as §1

[7] = compound: C1=CC2=C(C=CC(=C2)/C=C\3/C(=O)NC(=NCC4=CC=CS4)S3)N=C1
Method in brief: as §1

[8] = compound: C1=CC=C2C(=C1)C3=NNC4=CC=CC(=C43)C2=O
Method in brief: as §1

Measured: log2 fold change

SNX24 (UniProt Q9Y343)
inactive: erlotinib -0.13 | [1] -0.121 | [2] 0.004 | [3] -0.016 | [4] 0.069 | [5] 0.001 | IRAK-1-4 Inhibitor I -0.034

SMIM11A (UniProt P58511)
inactive: [6] -0.271 | [7] -0.006 | [8] 0.158 | [4] 0.133 | [5] 0.002

SOHLH2 isoform 3 (UniProt Q9NX45)
inactive: erlotinib -0.009 | [1] -0.057 | [2] -0.062 | [3] 0.026 | [4] 0.031 | [5] -0.07 | IRAK-1-4 Inhibitor I 0.037

SMIM1 (UniProt B2RUZ4)
inactive: erlotinib 0.172 | [1] -0.145 | [2] -0.114 | [3] 0.063 | [4] 0.086 | [5] -0.016 | IRAK-1-4 Inhibitor I -0.214

SMPDL3B (UniProt Q92485)
inactive: [6] -0.049 | [7] -0.158 | [3] 0.036 | [8] 0.127 | [4] 0.444 | [5] 0.176 | IRAK-1-4 Inhibitor I -0.015

SPAG9 isoform 4 (UniProt O60271)
inactive: [6] 0.108 | [7] 0.059 | [2] 0.048 | [3] 0.058 | [8] 0.008 | [4] 0.047 | [5] 0.115 | IRAK-1-4 Inhibitor I -0.06

SPAG1 (UniProt Q07617)
active: [2] 1.01
inactive: [6] -0.045 | [7] -0.089 | [3] -0.034 | [8] -0.063 | IRAK-1-4 Inhibitor I 0.042

SMIM4 (UniProt Q8WVI0)
inactive: [2] 0.145 | [3] -0.066 | IRAK-1-4 Inhibitor I -0.028

SMARCC2 isoform 3 (UniProt Q8TAQ2)
inactive: [2] -0.021 | [3] 0.006 | IRAK-1-4 Inhibitor I -0.123

SNX19 (UniProt Q92543)
inactive: erlotinib 0.012 | [1] 0.19 | [3] 0.021 | [4] 0.043 | [5] 0.087 | IRAK-1-4 Inhibitor I 0.035

SNX33 (UniProt Q8WV41)
inactive: [2] -0.006 | [3] 0.086 | IRAK-1-4 Inhibitor I -0.314

SP3 (UniProt Q02447)
inactive: erlotinib -0.045 | [1] 0.061 | [2] -0.046 | [3] -0.019 | [4] -0.046 | [5] -0.037 | IRAK-1-4 Inhibitor I -0.01

SNX25 (UniProt Q9H3E2)
inactive: erlotinib 0.018 | [1] -0.045 | [3] -0.048 | [4] -0.117 | [5] -0.002 | IRAK-1-4 Inhibitor I 0.082

SNX13 (UniProt Q9Y5W8)
inactive: erlotinib 0.078 | [1] -0.142 | [2] 0 | [3] 0.017 | IRAK-1-4 Inhibitor I 0.067

SMPD2 (UniProt O60906)
inactive: [1] -0.551 | [3] -0.112 | [4] -0.024 | [5] 0.022 | IRAK-1-4 Inhibitor I 0.065
active: erlotinib -1.38

SON isoform 6 (UniProt P18583)
inactive: [3] -0.075 | IRAK-1-4 Inhibitor I -0.062

SOX11 (UniProt P35716)
inactive: [6] 0.046 | [7] -0.036 | [8] -0.064

SMPDL3A (UniProt Q92484)
inactive: [6] -0.034 | [7] -0.107 | [8] 0.121 | [4] 0.098 | [5] 0.144

SMC4 (UniProt C9JJ64)
inactive: [2] -0.013

SMARCA4 isoform 4 (UniProt P51532)
inactive: erlotinib 0.052 | [1] 0.178 | [3] 0.127 | [4] 0.112 | [5] -0.076 | IRAK-1-4 Inhibitor I -0.101

SNX10 (UniProt Q9Y5X0)
inactive: erlotinib 0.003 | [1] 0.052 | [3] 0.102 | IRAK-1-4 Inhibitor I -0.094

SNAPC3 (UniProt Q92966)
inactive: erlotinib -0.047 | [1] -0.04 | [2] -0.125 | [4] 0.104 | [5] 0.002

SNX30 (UniProt Q5VWJ9)
inactive: erlotinib -0.066 | [1] -0.004 | [2] -0.134 | [3] 0.05 | IRAK-1-4 Inhibitor I -0.023

SPA17 (UniProt Q15506)
inactive: [6] -0.047 | [7] 0.01 | [2] -0.033 | [3] -0.018 | [8] -0.106 | [4] -0.076 | [5] -0.029 | IRAK-1-4 Inhibitor I 0

Ten neighbouring entries already listed, quoted:
SMIM4 (UniProt Q8WVI0)
inactive: [2] 0.145 | [3] -0.066 | IRAK-1-4 Inhibitor I -0.028

SMARCC2 isoform 3 (UniProt Q8TAQ2)
inactive: [2] -0.021 | [3] 0.006 | IRAK-1-4 Inhibitor I -0.123

SNX19 (UniProt Q92543)
inactive: erlotinib 0.012 | [1] 0.19 | [3] 0.021 | [4] 0.043 | [5] 0.087 | IRAK-1-4 Inhibitor I 0.035

SNX33 (UniProt Q8WV41)
inactive: [2] -0.006 | [3] 0.086 | IRAK-1-4 Inhibitor I -0.314

SP3 (UniProt Q02447)
inactive: erlotinib -0.045 | [1] 0.061 | [2] -0.046 | [3] -0.019 | [4] -0.046 | [5] -0.037 | IRAK-1-4 Inhibitor I -0.01

SNX25 (UniProt Q9H3E2)
inactive: erlotinib 0.018 | [1] -0.045 | [3] -0.048 | [4] -0.117 | [5] -0.002 | IRAK-1-4 Inhibitor I 0.082

SNX13 (UniProt Q9Y5W8)
inactive: erlotinib 0.078 | [1] -0.142 | [2] 0 | [3] 0.017 | IRAK-1-4 Inhibitor I 0.067

SMPD2 (UniProt O60906)
inactive: [1] -0.551 | [3] -0.112 | [4] -0.024 | [5] 0.022 | IRAK-1-4 Inhibitor I 0.065
active: erlotinib -1.38

SON isoform 6 (UniProt P18583)
inactive: [3] -0.075 | IRAK-1-4 Inhibitor I -0.062

SOX11 (UniProt P35716)
inactive: [6] 0.046 | [7] -0.036 | [8] -0.064

Next part.

SNRNP25 (UniProt Q9BV90)
inactive: [2] 0.017 | [3] 0.078 | IRAK-1-4 Inhibitor I 0.107

SMDT1 (UniProt Q9H4I9)
inactive: erlotinib -0.013 | [1] 0.024 | [2] 0.022 | [3] 0.105 | IRAK-1-4 Inhibitor I -0.087

SMIM26, A0A096LP01
inactive: [3] 0.214 | IRAK-1-4 Inhibitor I 0.031

SMPD1 (UniProt P17405)
inactive: erlotinib -0.022 | [1] 0.03 | [2] 0.051 | [3] -0.021 | IRAK-1-4 Inhibitor I 0.09

SNAPC5 (UniProt O75971)
inactive: [6] 0.109 | [7] 0.011 | [8] -0.081

SNAPC2 (UniProt Q13487)
inactive: erlotinib 0.131 | [1] 0.022 | [2] -0.21 | [3] 0.087 | IRAK-1-4 Inhibitor I -0.166

SNAPC4 (UniProt Q5SXM2)
inactive: [6] -0.015 | [7] -0.008 | [2] -0.002 | [8] -0.069 | [4] -0.074 | [5] -0.053

SOD3 (UniProt P08294)
inactive: [6] -0.07 | [7] 0.079 | [2] 0.018 | [8] 0.014 | [4] 0.161 | [5] 0.018

SMR3B (UniProt P02814)
inactive: [3] -0.071 | [4] -0.139 | [5] -0.138 | IRAK-1-4 Inhibitor I 0.004

SP2 (UniProt Q02086)
inactive: [2] 0.045 | [4] -0.188 | [5] -0.028

SMIM19 (UniProt Q96E16)
inactive: [3] 0.103 | IRAK-1-4 Inhibitor I -0.204
